Compound in the assay: Cc1cc(ccc1-c1ccccc1)C(=O)N1CCCN(CC1)C(=O)CCl [compound 10]
The assay can be described thus: probe-labelled cysteine peptide fold change vs DMSO (competition) (log2 fold change); higher = less target engagement (more negative = stronger competition). The following applies: THP-1, incubation time: 4 h.

Sequences of proteins named here, by UniProt entry; tags and fusion partners are left off. A change or cut given only in a name is not applied to a line headed by its entry.
UniProt P13489: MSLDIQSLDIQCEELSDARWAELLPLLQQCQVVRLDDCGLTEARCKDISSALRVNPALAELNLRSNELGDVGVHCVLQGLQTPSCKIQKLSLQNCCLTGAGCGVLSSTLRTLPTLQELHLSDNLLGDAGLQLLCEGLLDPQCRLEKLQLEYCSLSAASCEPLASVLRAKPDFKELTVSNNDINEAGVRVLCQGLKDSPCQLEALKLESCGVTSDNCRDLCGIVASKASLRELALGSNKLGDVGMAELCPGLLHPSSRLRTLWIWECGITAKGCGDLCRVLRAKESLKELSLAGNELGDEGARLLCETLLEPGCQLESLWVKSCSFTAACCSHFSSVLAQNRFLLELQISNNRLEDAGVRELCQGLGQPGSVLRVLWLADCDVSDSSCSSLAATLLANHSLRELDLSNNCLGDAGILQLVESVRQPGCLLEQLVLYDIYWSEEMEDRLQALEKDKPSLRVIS
UniProt Q63HN8: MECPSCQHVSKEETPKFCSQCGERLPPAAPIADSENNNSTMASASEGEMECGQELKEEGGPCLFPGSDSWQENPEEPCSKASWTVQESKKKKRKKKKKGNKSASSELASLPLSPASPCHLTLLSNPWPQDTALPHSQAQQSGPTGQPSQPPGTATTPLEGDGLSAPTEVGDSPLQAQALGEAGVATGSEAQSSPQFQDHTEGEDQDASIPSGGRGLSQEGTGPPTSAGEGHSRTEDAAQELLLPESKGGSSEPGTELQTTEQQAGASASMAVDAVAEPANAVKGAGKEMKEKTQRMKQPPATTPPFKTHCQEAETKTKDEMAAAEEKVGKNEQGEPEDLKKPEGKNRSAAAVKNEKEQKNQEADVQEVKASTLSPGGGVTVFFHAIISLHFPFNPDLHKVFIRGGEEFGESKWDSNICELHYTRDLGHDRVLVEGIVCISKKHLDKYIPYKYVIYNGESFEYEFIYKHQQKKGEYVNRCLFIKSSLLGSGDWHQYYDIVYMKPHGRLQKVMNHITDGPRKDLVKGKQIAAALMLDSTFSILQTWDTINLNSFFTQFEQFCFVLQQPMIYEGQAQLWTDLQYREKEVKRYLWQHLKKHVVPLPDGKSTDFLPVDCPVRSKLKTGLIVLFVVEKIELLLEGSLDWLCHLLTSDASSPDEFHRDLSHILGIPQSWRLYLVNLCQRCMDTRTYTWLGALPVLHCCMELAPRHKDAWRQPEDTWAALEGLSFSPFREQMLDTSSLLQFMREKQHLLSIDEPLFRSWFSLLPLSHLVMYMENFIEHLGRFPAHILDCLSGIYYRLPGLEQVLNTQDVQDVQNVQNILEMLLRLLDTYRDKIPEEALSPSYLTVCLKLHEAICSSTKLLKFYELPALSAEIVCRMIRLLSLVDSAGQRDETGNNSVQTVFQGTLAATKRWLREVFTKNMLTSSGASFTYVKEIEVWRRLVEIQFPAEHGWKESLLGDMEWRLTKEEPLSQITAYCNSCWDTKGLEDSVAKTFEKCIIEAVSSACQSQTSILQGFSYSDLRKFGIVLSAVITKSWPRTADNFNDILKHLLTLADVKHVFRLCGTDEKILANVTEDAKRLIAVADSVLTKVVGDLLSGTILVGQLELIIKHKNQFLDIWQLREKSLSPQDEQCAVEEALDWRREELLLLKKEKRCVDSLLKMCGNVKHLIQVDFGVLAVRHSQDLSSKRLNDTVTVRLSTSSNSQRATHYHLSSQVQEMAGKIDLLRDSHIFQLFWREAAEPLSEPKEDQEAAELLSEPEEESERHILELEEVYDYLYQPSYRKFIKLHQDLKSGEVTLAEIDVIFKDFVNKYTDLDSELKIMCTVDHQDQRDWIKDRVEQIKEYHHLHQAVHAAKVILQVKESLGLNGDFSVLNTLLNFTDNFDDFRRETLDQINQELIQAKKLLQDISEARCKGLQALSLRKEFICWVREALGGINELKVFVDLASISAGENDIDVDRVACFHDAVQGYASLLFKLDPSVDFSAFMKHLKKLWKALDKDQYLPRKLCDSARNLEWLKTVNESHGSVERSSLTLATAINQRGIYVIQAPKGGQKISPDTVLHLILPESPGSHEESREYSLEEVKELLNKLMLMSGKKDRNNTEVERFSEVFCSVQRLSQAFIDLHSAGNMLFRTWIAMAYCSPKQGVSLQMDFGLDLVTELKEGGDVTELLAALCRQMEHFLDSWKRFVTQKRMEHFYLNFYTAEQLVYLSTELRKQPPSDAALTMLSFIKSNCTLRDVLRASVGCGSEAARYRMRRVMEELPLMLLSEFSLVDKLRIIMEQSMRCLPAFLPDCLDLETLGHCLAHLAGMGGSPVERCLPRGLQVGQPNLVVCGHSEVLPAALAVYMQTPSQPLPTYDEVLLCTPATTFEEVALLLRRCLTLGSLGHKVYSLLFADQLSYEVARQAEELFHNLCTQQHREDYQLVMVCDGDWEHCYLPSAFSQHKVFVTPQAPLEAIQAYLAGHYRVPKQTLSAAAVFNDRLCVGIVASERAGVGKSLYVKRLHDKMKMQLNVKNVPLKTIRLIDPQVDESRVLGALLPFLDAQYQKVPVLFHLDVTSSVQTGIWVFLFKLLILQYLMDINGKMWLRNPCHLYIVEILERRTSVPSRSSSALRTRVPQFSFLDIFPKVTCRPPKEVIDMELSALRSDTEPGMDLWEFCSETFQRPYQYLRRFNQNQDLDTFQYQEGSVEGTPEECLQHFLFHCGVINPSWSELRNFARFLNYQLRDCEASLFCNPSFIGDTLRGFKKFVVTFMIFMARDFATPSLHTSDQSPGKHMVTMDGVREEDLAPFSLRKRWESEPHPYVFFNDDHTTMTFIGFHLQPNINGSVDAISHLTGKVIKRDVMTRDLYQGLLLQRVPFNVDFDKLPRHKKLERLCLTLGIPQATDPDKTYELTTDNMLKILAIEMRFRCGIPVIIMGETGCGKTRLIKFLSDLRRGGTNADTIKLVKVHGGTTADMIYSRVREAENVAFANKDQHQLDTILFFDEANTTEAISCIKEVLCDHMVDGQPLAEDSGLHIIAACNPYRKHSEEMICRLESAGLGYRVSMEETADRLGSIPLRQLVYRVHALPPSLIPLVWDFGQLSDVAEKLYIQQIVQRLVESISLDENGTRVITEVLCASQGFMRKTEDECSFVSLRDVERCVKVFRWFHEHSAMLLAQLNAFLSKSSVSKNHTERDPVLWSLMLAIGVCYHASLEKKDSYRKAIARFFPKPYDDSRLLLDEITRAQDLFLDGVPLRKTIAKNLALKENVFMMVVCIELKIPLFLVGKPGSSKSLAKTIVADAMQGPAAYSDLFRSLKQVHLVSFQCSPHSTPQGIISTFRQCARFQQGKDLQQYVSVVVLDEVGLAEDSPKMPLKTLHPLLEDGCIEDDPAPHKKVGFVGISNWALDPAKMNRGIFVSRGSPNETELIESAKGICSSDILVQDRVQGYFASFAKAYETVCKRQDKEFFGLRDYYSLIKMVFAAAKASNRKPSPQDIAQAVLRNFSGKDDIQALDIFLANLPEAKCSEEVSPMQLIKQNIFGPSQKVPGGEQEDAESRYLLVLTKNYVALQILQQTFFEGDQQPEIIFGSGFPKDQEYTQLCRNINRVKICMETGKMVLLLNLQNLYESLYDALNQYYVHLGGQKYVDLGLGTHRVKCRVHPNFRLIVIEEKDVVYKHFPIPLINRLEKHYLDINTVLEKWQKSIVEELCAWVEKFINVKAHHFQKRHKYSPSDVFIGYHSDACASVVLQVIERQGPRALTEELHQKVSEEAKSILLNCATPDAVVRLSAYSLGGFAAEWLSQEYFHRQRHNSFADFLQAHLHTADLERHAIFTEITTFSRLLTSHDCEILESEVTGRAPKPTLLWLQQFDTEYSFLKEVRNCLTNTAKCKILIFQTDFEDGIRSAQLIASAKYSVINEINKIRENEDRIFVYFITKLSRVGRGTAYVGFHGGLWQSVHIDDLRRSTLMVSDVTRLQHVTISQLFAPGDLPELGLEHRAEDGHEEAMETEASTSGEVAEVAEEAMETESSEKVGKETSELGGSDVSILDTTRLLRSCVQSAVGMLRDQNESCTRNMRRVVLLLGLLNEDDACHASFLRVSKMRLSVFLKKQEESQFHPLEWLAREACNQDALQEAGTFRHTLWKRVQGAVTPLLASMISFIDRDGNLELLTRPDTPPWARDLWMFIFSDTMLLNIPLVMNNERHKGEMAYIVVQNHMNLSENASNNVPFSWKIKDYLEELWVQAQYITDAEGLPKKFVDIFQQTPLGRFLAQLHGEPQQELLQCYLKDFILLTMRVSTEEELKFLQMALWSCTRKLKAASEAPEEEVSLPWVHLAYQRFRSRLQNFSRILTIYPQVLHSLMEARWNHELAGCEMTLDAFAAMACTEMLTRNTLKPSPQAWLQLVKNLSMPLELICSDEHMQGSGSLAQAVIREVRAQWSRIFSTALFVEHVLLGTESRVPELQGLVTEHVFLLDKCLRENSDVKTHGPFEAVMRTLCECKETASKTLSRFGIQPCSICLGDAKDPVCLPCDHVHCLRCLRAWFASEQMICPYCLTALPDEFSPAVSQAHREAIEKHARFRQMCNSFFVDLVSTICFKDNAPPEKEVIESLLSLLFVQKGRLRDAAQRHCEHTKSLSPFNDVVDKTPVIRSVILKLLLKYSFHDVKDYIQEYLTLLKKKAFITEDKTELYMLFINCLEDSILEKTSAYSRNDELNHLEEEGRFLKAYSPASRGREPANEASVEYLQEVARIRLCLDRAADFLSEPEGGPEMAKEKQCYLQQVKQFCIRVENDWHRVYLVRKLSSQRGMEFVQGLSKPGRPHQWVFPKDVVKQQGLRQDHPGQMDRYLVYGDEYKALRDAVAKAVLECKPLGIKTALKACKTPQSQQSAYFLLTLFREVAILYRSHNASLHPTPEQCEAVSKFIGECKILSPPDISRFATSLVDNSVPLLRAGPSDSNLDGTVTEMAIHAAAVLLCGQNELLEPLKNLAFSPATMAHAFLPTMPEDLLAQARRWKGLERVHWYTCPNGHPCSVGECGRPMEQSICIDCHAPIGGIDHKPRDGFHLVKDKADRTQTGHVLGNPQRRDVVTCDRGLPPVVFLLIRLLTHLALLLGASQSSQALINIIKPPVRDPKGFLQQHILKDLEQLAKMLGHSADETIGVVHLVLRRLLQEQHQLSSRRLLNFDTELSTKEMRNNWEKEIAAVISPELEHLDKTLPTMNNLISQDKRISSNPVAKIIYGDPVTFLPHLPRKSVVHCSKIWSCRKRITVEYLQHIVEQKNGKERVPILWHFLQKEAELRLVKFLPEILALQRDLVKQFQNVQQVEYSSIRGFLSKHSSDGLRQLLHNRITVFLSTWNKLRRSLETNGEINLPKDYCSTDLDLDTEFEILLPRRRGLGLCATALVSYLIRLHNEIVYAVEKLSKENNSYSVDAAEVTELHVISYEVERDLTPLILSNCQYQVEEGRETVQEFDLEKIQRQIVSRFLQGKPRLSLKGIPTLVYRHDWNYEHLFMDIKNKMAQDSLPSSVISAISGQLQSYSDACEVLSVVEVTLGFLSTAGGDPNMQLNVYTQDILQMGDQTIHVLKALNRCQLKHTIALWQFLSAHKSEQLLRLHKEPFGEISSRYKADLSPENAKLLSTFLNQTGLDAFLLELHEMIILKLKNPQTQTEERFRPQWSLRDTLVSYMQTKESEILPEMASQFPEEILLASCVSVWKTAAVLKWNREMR
UniProt Q9H4P4: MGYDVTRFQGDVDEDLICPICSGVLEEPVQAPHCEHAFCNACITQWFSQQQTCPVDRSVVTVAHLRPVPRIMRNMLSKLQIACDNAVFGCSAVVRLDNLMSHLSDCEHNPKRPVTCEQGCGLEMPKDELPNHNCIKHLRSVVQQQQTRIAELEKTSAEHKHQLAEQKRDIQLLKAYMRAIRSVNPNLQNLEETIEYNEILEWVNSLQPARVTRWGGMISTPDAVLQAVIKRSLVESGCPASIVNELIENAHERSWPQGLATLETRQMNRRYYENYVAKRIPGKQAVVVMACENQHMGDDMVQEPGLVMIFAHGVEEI
UniProt Q96P16: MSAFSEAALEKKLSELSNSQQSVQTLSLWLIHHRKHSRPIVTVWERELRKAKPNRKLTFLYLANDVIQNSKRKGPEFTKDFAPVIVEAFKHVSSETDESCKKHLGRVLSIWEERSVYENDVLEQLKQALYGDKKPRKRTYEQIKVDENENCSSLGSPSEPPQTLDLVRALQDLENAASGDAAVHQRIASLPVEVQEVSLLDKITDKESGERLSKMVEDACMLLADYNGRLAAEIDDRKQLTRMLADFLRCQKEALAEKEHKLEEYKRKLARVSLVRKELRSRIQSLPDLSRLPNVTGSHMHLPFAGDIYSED
UniProt P78345: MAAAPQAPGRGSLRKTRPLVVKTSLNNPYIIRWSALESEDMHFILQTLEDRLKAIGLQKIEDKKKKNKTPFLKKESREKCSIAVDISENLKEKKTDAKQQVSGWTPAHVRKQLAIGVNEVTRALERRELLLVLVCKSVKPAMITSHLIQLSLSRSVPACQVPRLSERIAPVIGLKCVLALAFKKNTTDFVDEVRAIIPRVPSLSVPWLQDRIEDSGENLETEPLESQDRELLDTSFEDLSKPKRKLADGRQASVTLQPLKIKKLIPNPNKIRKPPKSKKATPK

The list shows a part of the results.
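Further: competitive profiling in live THP-1 cells: cysteine peptides tagged with an iodoacetamide desthiobiotin (IA-DTB) probe, intensity after compound treatment relative to DMSO-treated cells.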

Regarding “RNH1_P13489_95+102_IQKLSLQNCCLTGAGCGVLSSTLR (UniProt P13489)”, the “probe-labelled cysteine peptide fold change” value (10 µM) turned out to be 0.0329 and the “probe-labelled cysteine peptide fold change” value (50 µM) was -0.0215.
Consider “RNF213_Q63HN8_3609_EACNQDALQEAGTFR (UniProt Q63HN8)”, for which the “probe-labelled cysteine peptide fold change” value is -0.305 (10 µM) and -0.0879 (50 µM).
For “RNF41_Q9H4P4_134_DELPNHNCIK (UniProt Q9H4P4)” the same measures were 0.0894 and 0.272.
For “RNF219_Q5W0B1_52_NNSQCPACR (UniProt Q5W0B1)” the same measures were -0.125 and -0.404.
The like results for “RPL18A_Q02543_109_EYRDLTTAGAVTQCYR (UniProt Q02543)” were, in that order, -0.245 and -0.818.
Take “RNH1_P13489_159_LQLEYCSLSAASCEPLASVLR (UniProt P13489)”: the “probe-labelled cysteine peptide fold change” value is, setting by setting: (10 µM) -0.063; (50 µM) -0.116.
As for “RNF31_Q96EP0_473_LSAPLPSSCGDPEK (UniProt Q96EP0)”, the “probe-labelled cysteine peptide fold change” value runs as follows: (10 µM) -0.208; (50 µM) 0.0977.
For “RPL28_P46779_13_NCSSFLIKR (UniProt P46779)” the same measures were -0.103 and -0.742.
The like results for “RPL35A_P18077_47_CAYVYK (UniProt P18077)” were, in that order, -0.02 and 0.139.
For “RNF214_Q8ND24_99_NVHLEHSEQNPGSSAGDTSAAHQVVLGENLIATALCLSGSGSQSDLK (UniProt Q8ND24)” the same measures were -0.311 and -0.262.
As to “RNF213_Q63HN8_3854_WNHELAGCEMTLDAFAAMACTEMLTR (UniProt Q63HN8)”, the “probe-labelled cysteine peptide fold change” value runs as follows: (10 µM) -0.0959; (50 µM) -0.244.
The like results for “RNPEP_Q9H4A4_369_ISTILFGAAYTCLEAATGR (UniProt Q9H4A4)” were, in that order, 0.0626 and 0.289.
Turning to “RPRD1A_Q96P16_151_VDENENCSSLGSPSEPPQTLDLVR (UniProt Q96P16)”, the “probe-labelled cysteine peptide fold change” value (10 µM) was -0.0309 and the “probe-labelled cysteine peptide fold change” value (50 µM) was -0.00533.
As for “RPP38_P78345_159_SVPACQVPR (UniProt P78345)”, the “probe-labelled cysteine peptide fold change” value (10 µM) was -0.121 and the “probe-labelled cysteine peptide fold change” value (50 µM) is -0.0129.

These data come from the supplement of paper PMC12067093, “Discovery and optimisation of a covalent ligand for TRIM25 and its application to targeted protein ubiquitination” (Chemical Science, 2025).
